In the supplement of paper PMC8426693:
Some of the results follow.

Columns and labels:
Assay in all cases: NMR binding call after quantification (hit when 2 of 3 NMR criteria are met) (binary (1 = binding, 0 = not binding)); higher = binding
Conditions in all cases: RNA concentration 10 µM; fragment concentration 200 µM; 293 K
SARS-CoV-2 3'-UTR RNA = system: SARS-CoV-2 3'-UTR RNA
SARS-CoV-2 3_SL1 RNA = system: SARS-CoV-2 3_SL1 RNA
SARS-CoV-2 3_SL2 RNA = system: SARS-CoV-2 3_SL2 RNA
SARS-CoV-2 3_SL3base RNA = system: SARS-CoV-2 3_SL3base RNA
SARS-CoV-2 3_s2m RNA = system: SARS-CoV-2 3_s2m RNA
SARS-CoV-2 5'-UTR RNA = system: SARS-CoV-2 5'-UTR RNA
SARS-CoV-2 5_SL1 RNA = system: SARS-CoV-2 5_SL1 RNA
SARS-CoV-2 5_SL1234 RNA = system: SARS-CoV-2 5_SL1234 RNA
SARS-CoV-2 5_SL4 RNA = system: SARS-CoV-2 5_SL4 RNA
SARS-CoV-2 5_SL5 RNA = system: SARS-CoV-2 5_SL5 RNA
SARS-CoV-2 5_SL5a RNA = system: SARS-CoV-2 5_SL5a RNA
SARS-CoV-2 5_SL5b+c RNA = system: SARS-CoV-2 5_SL5b+c RNA
SARS-CoV-2 5_SL5stem RNA = system: SARS-CoV-2 5_SL5stem RNA
SARS-CoV-2 5_SL6 RNA = system: SARS-CoV-2 5_SL6 RNA
SARS-CoV-2 5_SL2+3 RNA = system: SARS-CoV-2 5_SL2+3 RNA
SARS-CoV-2 3_SL1+2 RNA = system: SARS-CoV-2 3_SL1+2 RNA

Measured: NMR binding call

Cc1nc2ccccc2n1CCC(N)=O
not listed: SARS-CoV-2 5_SL2+3 RNA | SARS-CoV-2 3_SL1+2 RNA
0: all other assays above

Cc1cc2ncn(CC(N)=O)c2cc1C
1: SARS-CoV-2 3'-UTR RNA
not listed: SARS-CoV-2 5_SL1234 RNA | SARS-CoV-2 3_SL1+2 RNA
0: all other assays above

N#CCC(=O)Nc1ccc(Cl)cc1
not listed: SARS-CoV-2 3_SL1+2 RNA
0: all other assays above

Cc1cc(N2CCNCC2)nc(C)n1
1: SARS-CoV-2 5'-UTR RNA
not listed: SARS-CoV-2 5_SL5 RNA | SARS-CoV-2 5_SL5b+c RNA | SARS-CoV-2 3_SL1+2 RNA
0: all other assays above

FC(F)(F)c1ccc(CN2CCOCC2)cc1
not listed: SARS-CoV-2 5_SL6 RNA | SARS-CoV-2 5_SL2+3 RNA | SARS-CoV-2 3_SL1+2 RNA
0: all other assays above

COc1ccc(C(N)c2ccccc2)cc1.Cl (configuration not stated)
not listed: SARS-CoV-2 3_SL1+2 RNA
0: all other assays above

CNS(=O)(=O)c1ccccc1Cl
not listed: SARS-CoV-2 3_SL1+2 RNA
0: all other assays above

CC(=O)Nc1ccc(N2CCN(C)CC2)cc1
not listed: SARS-CoV-2 5'-UTR RNA | SARS-CoV-2 3_SL1+2 RNA
0: all other assays above

O=C(Nc1ccc(F)cc1)Nc1cccc(O)c1
not listed: SARS-CoV-2 3'-UTR RNA
0: all other assays above

COCC(=O)Nc1ccccc1C(N)=O
not listed: SARS-CoV-2 3_SL1 RNA
0: all other assays above

c1coc(CNc2nc3ccccc3[nH]2)c1
1: SARS-CoV-2 3_SL1+2 RNA | SARS-CoV-2 3_SL3base RNA | SARS-CoV-2 5'-UTR RNA
not listed: SARS-CoV-2 3'-UTR RNA
0: all other assays above

O=C(Nc1ccc(O)cc1)c1ccc(Cl)cc1
0: SARS-CoV-2 3_SL2 RNA | SARS-CoV-2 3_s2m RNA | SARS-CoV-2 5_SL1 RNA | SARS-CoV-2 5_SL2+3 RNA | SARS-CoV-2 5_SL5b+c RNA
1: SARS-CoV-2 3'-UTR RNA | SARS-CoV-2 3_SL3base RNA | SARS-CoV-2 5'-UTR RNA

CC(C)N(C)c1ncnc2c1cnn2C
not listed: SARS-CoV-2 3'-UTR RNA | SARS-CoV-2 3_SL3base RNA
0: all other assays above

CCOc1ccc(C(=O)Nc2cc(C)on2)cc1
not listed: SARS-CoV-2 3'-UTR RNA
0: all other assays above

O=C(NCCc1ccncc1)c1ccccc1F
not listed: SARS-CoV-2 5_SL1234 RNA | SARS-CoV-2 5_SL5 RNA | SARS-CoV-2 5_SL5a RNA | SARS-CoV-2 5_SL5stem RNA | SARS-CoV-2 3_SL1+2 RNA
0: all other assays above

CC(C)C(=O)NCc1nc2ccccc2[nH]1
not listed: SARS-CoV-2 5_SL5a RNA | SARS-CoV-2 5_SL6 RNA | SARS-CoV-2 3_SL1+2 RNA
0: all other assays above

Cc1ccc(CNC(=O)C2CCC2)cn1
not listed: SARS-CoV-2 3'-UTR RNA | SARS-CoV-2 3_SL3base RNA | SARS-CoV-2 5_SL1 RNA | SARS-CoV-2 5_SL5a RNA | SARS-CoV-2 5_SL2+3 RNA
0: all other assays above

c1csc(-c2nnc[nH]2)n1
not listed: SARS-CoV-2 3_SL1 RNA | SARS-CoV-2 5_SL1 RNA | SARS-CoV-2 5_SL5b+c RNA | SARS-CoV-2 5_SL2+3 RNA
0: all other assays above

CC(O)CNC(=O)Nc1ccccc1 (configuration not stated)
not listed: SARS-CoV-2 3'-UTR RNA
0: all other assays above
